Experimental findings from PubChem BioAssay AID2685 (National Center for Advancing Translational Sciences (NCATS), 2010) are described below.

SMILES strings stand for the structures. This is one part of the list. The main result of the screen is listed elsewhere. These columns were measured beside it and carry no call. Compounds called inactive in the main read-out are mostly missing here. The note in brackets gives the kind of curve behind each potency; many fits are weak.

A short description of this experiment: qHTS Assay for Lipid Storage Modulators in Drosophila S3 Cells.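 As to cell number change: cells counted by Cell Tracker Red CMTPX staining in the red channel.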 Particulars: BODIPY lipid droplet fluorescence, 18-24 h; for cell number change: measured here: cell count max response, cells fed with added oleic acid. A digest of the protocol:
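Drosophila S3 cells got compounds at several concentrations plus oleic acid (400 uM solution). Laser-scanning cytometry with 488 nm excitation read lipid droplets at 500-530 nm and cells at 575-640 nm. Percent activity was relative to 20 uM Triacsin C.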
For orientation: qHTS replaces the single test concentration by a dilution series.

[1] abbreviates: measured here: lipid fluorescence (Fed channel) AC50, cells fed with added oleic acid.
Where [2] appears, read: measured here: cell number channel AC50, cells fed with added oleic acid.

Consider `Cc1ccc(C)c(Cn2nnc3c(=O)[nH]c(C4CCCN(C(=O)C5CCC5)C4)nc32)c1` (stereo not given), for which the cell number change is -21.4%. Besides, under setting [1], the concentration at half-maximal activity (AC50) was 0.146 µM [rising, full curve, poor fit].

With `COCCn1c(SCC(=O)NCc2ccco2)nc2cccnc21`, the cell number change was 11.4%.

Turning to `COc1ccc(C)cc1-n1nnnc1SCC(=O)c1cc(C)n(Cc2ccco2)c1C`, the concentration at half-maximal activity (AC50) runs as follows: under setting [2], 1.84 µM [rising, partial curve]; under setting [1], 16.4 µM [rising, partial curve].

For the compound `CSc1cccc(NC(=O)Cn2cnc(S(=O)(=O)N3CCCC3)c2)c1`, the cell number change was -8.06%. Under setting [1], the AC50 was 0.00517 µM [falling, full curve, poor fit].

With `O=[N+]([O-])c1ccccc1OCC(O)CN1CCN(CC(O)COc2ccccc2[N+](=O)[O-])CC1` (stereo not given), the cell number change is -15.2%. The same measure, in the same setting: to `CC(C)Cc1nnc(NC(=O)CCC(=O)N2CCN(c3ccc(Cl)cc3)CC2)s1` belongs -2.09%; to `Cc1cccc(CN2C3=NCCCN3c3ccccc32)c1`, 16.3%; to `CCOC(=O)C1CCCN(C(=O)c2cc3c(OC)c(OC)c(OC)cc3[nH]2)C1` (stereo not given), 10.3%. With `COc1cc(CNCCc2ccc(F)cc2)ccc1OCc1ccc(Cl)nc1`, the cell number change was -25%. Further, the AC50 under setting [1] is 5.8 µM [rising, single point]. Turning to `CC(=O)N1c2ccc(Cl)cc2C2C=CCC2C1c1cccc2ccccc12` (stereo not given), the cell number change was -20.3%. Turning to `O=C(COC(=O)c1ccc(Br)o1)NCCNC(=O)COC(=O)c1ccc(Br)o1`, the cell number change came out at 23.1%. Besides, the AC50 under setting [1] was 29.1 µM [rising, single point]. For the compound `COc1cc2nc(Nc3ccc(F)cc3)nc(N)c2cc1OC`, the cell number change turned out to be 4.17%. Further, the AC50 under setting [2] was 6.51 µM [rising, single point]. In the case of `O=C(CN1C(=O)CCC1=O)c1ccc(-c2ccccc2)cc1`, the cell number change is -20.9%. Besides, the AC50 under setting [1] was 0.231 µM [falling, full curve, poor fit].

Turning to `Cc1cc(OCC(=O)NC(C)c2ccccc2)ccc1[N+](=O)[O-]` (stereo not given), the cell number change is 29.2%. Besides, the AC50 under setting [2] is 0.517 µM [rising, full curve, poor fit]. As for `COC(=O)c1ccc(CSc2nc3ccccc3c(=O)n2-c2cccc(OC)c2)o1`, the cell number change was 31.6%. Besides, the AC50 under setting [2] was 23.1 µM [rising, single point]. Under setting [1], the AC50 was 0.092 µM [rising, full curve].

Turning to `O=C(CSc1ccsc1[N+](=O)[O-])NCCc1ccc(Cl)cc1`, the cell number change is -25.5%. The AC50 under setting [2] is 2.06 µM [falling, full curve, poor fit]. The AC50 under setting [1] is 18.4 µM [falling, partial curve, poor fit].

Consider `c1ccc(Nc2nc(Nc3ccccc3)nc(N3CCNCC3)n2)cc1`, for which the cell number change is -3.97%. Further, under setting [1], the AC50 is 1.84 µM [rising, partial curve]. `CCOc1cc(C(=O)Nc2ccccc2N2CCOCC2)ccc1OCC(=O)N1CCCCC1`: the cell number change is -41%. In addition, the AC50 under setting [2] was 0.103 µM [falling, full curve]. The AC50 under setting [1] is 29.1 µM [falling, partial curve, poor fit]. Regarding `CCC(C)c1ccc(C(C)NC(=S)NCc2ccc(F)cc2)cc1` (stereo not given), the cell number change was -39.6%. Also, the AC50 under setting [2] is 32.6 µM [falling, single point]. With `CCOC(=O)NC(=O)CSc1ccccn1`, the cell number change was -15.2%. The AC50 under setting [1] was 4.11 µM [falling, single point]. For `CCOC(=O)c1c(C)nc(-c2ccccc2)nc1NC(C)=O`, the cell number change was -16.4%. Moreover, the half-maximal activity concentration (AC50) under setting [1] was 29.1 µM [rising, single point].

Turning to `CC1=NCCN1S(=O)(=O)c1cccc([N+](=O)[O-])c1`, the cell number change was -2.19%. Also, the AC50 under setting [1] is 0.0058 µM [falling, full curve, poor fit]. Take `CC(C)(C)c1cn(-c2ccc(F)cc2)c(=S)[nH]1`: the cell number change was -7.82%. Moreover, the AC50 under setting [2] is 6.51 µM [falling, single point]. Further, the AC50 under setting [1] is 3.26 µM [falling, full curve]. On to `Oc1ccc(Br)cc1/C=N/Nc1ccccn1`, for which the cell number change is -50.4%. Besides, the half-maximal activity concentration (AC50) under setting [2] is 4.61 µM [falling, full curve].

As for `COc1nc(NC(=O)c2ccc(F)cc2)nc(OC)c1-c1ccccc1`, the cell number change was found to be 4.5%. With `Cc1cc(=O)oc2c(C)c(OC(C)C(=O)NCC(O)c3ccccc3)ccc12` (stereo not given), the cell number change is 13.4%. Regarding `CN(c1ccccc1)S(=O)(=O)c1ccc(NC(=S)NC(=O)C2CC2)cc1`, the cell number change was determined as 8.24%. Moreover, under setting [1], the AC50 was 23.1 µM [rising, single point].

Consider `O=C(Nc1cccnc1)c1cc(-c2cccc(Br)c2)nc2ccccc12`, for which the cell number change amounted to 29%. Besides, the half-maximal activity concentration (AC50) under setting [2] is 0.411 µM [rising, full curve, poor fit]. Moreover, the concentration at half-maximal activity (AC50) under setting [1] was 6.51 µM [falling, partial curve].

As to `CCOC(=O)CNC(=O)CNC(=O)c1ccc(OC)cc1`, the cell number change worked out at 32.3%. Under setting [2], the AC50 is 0.651 µM [rising, partial curve, poor fit].

Take `O=C(Nc1ccc2c(c1)ncn2C1CCCCC1)c1ccco1`: the cell number change turned out to be 39.1%. In addition, the AC50 under setting [2] is 8.2 µM [rising, partial curve]. Further, the AC50 under setting [1] was 6.51 µM [rising, single point]. In the case of `CC(C)(C)c1nnc2sc(SCC(=O)NCc3ccco3)nn2c1=O`, the cell number change was 8.27%. Moreover, the AC50 under setting [1] was 0.0731 µM [rising, full curve, poor fit]. Regarding `CCn1c(COc2cccc(OC)c2)nnc1SCC(=O)NC1CCCC1`, the cell number change was 10.5%. The AC50 under setting [1] is 0.13 µM [rising, full curve]. On to `COc1nc(OC)nc(N2CCC(C(=O)NC3CCCCCC3)CC2)n1`, for which the cell number change was -34.6%. The half-maximal activity concentration (AC50) under setting [2] is 7.31 µM [falling, partial curve]. Take `CCC(=O)N1CCN(c2ccc(NC(=S)NC(=O)c3cc4ccccc4o3)cc2)CC1`: the cell number change is -23.7%. In addition, under setting [2], the AC50 is 4.61 µM [falling, full curve, poor fit]. Regarding `COc1c(Cl)cc(Cl)cc1CNCCNCCO`, the cell number change was determined as 46.4%. Moreover, under setting [2], the AC50 is 25.9 µM [rising, single point]. In the case of `COc1cccc(N/C(SCc2cccc([N+](=O)[O-])c2)=C(/C#N)C(=O)NCc2cccs2)c1`, the AC50 under setting [1] is 11.6 µM [rising, partial curve]. Regarding `O=C(COC(=O)c1cc(S(=O)(=O)N2CCOCC2)ccc1Cl)Nc1ccccc1Cl`, the cell number change came out at 5.38%. Besides, the AC50 under setting [1] is 0.411 µM [falling, full curve, poor fit]. On to `O=C(O)/C=C/C(=O)Nc1ccc(SC(F)(F)C(F)(F)C(F)(F)F)cc1`, for which the cell number change was -92%. In addition, the AC50 under setting [2] was 29.1 µM [falling, single point]. As for `COc1ccc(CCNC(=O)C2CCN(C(=O)c3ccc(Br)cc3)CC2)cc1OC`, the cell number change was -17.5%. In addition, the AC50 under setting [1] is 18.4 µM [falling, single point]. Consider `Cc1cc(SC(C)C(=O)NCC(=O)Nc2ccc(F)c(F)c2F)nc2ccccc12` (stereo not given), for which the cell number change was -21.5%. Besides, the AC50 under setting [2] was 2.91 µM [falling, full curve, poor fit]. The AC50 under setting [1] was 3.26 µM [falling, single point].

Consider `Cc1ccc(C(=O)N/N=C/C=C/c2ccccc2)cc1`, for which the cell number change was 0.124%. As for `COc1cc(NS(=O)(=O)c2ccc(N)cc2)ncn1`, the cell number change is -11.1%. Moreover, the AC50 under setting [2] is 0.82 µM [rising, partial curve]. As for `CC1CCN(Cc2c(C(=O)N/N=C/c3cccc(C(F)(F)F)c3)nnn2-c2nonc2N)CC1`, the cell number change amounted to 71.2%. The AC50 under setting [2] was 29.1 µM [rising, single point]. Regarding `COc1ccc(CCNC(=O)CC(NS(=O)(=O)c2ccc(NC(C)=O)cc2)C(C)C)cc1OC` (stereo not given), the cell number change was 19.3%.

As for `CC(C)(C)Cc1nnc(NC(=O)c2ccco2)s1`, the AC50 under setting [1] was 29.1 µM [rising, single point]. As to `COCCCNC(=O)COc1ccc(Br)cc1Cl`, the cell number change is -42.5%. In addition, under setting [1], the AC50 was 29.1 µM [falling, single point]. `COc1ccccc1C1/C(=C(\O)c2ccc3c(c2)OCCO3)C(=O)C(=O)N1Cc1cccnc1` (stereo not given): the cell number change came out at 10.7%. As to `COc1ccc(Cl)cc1NC(=O)CSc1nc2ccsc2c(=O)n1CC1CCC(C(=O)O)CC1` (stereo not given), the cell number change is 21.2%.

Regarding `CCOc1ccc(CNC(=O)C2CCN(c3nn4c(=O)cc(C)nc4s3)CC2)cc1`, the cell number change was 8.56%. In addition, the half-maximal activity concentration (AC50) under setting [1] is 29.1 µM [rising, single point]. Regarding `O=C(O)CCc1ccc(S(=O)(=O)Nc2ccc(OCc3ccccc3)cc2)cc1`, the cell number change was -36.5%. Further, under setting [2], the AC50 is 9.2 µM [falling, partial curve, poor fit]. `COc1ccccc1N1C(=O)CC(N2CCN(c3ccc(Cl)cc3)CC2)C1=O` (stereo not given): the cell number change was 18.2%. On to `C=CCOc1cc(C)nc(-c2ccccc2O)n1`, for which the cell number change was 122%. The AC50 under setting [2] was 4.61 µM [rising, partial curve]. In addition, the AC50 under setting [1] was 5.8 µM [rising, partial curve].

Consider `CN1CCN(S(=O)(=O)c2ccc(NC(=O)c3cccc(F)c3)cc2)CC1`, for which the cell number change is 2.91%. For the same compound, the AC50 under setting [2] is 0.00411 µM [rising, full curve, poor fit]. Also, the AC50 under setting [1] is 9.2 µM [rising, partial curve].

For the compound `O=C(NCc1ccco1)c1cc(S(=O)(=O)N2CCCc3ccccc32)ccc1Cl`, the cell number change is -64.7%. In addition, under setting [2], the AC50 is 23.1 µM [falling, partial curve, poor fit].

As to `O=C(CSCc1ccccc1)Nc1ccccc1C(=O)Nc1ccc(C(=O)O)cc1`, the cell number change was 0.351%. Regarding `COc1cc(CC(CC(=O)O)CC(C)OCc2ccccc2)cc(OC)c1` (stereo not given), the AC50 under setting [1] is 18.4 µM [rising, single point]. Regarding `O=C(COC(=O)CNS(=O)(=O)c1cccc(Br)c1)Nc1ccccc1Sc1ccccc1`, the cell number change stood at 5.34%. The AC50 under setting [2] was 0.103 µM [rising, full curve, poor fit]. For `COc1cc(CNC(=O)OCC(C)C)cc(OC)c1OC`, the cell number change was 21.5%. Besides, the AC50 under setting [1] is 0.103 µM [falling, full curve, poor fit].

As to `Cc1nc2sc(C(c3cccs3)N3CCN(C(=O)c4ccco4)CC3)c(O)n2n1` (stereo not given), under setting [1], the AC50 was 6.51 µM [falling, single point]. On to `O=C(CN1C(=O)S/C(=C\c2ccccc2)C1=O)Nc1cc([N+](=O)[O-])ccc1O`, for which the cell number change was -13.8%. With `CCOCCCNC(=O)C(NC(=O)c1ccc2c(c1)OCO2)c1ccc(Cl)cc1` (stereo not given), the cell number change was -7.33%. Moreover, the concentration at half-maximal activity (AC50) under setting [1] was 0.82 µM [falling, full curve, poor fit]. Consider `CC(C)C(=O)Nc1nnc(SCC(=O)NC2CC2)s1`, for which the cell number change is 7.96%. In the case of `O=C(CNC(=O)C1CCCCC1)NCCCO`, the cell number change was determined as 17.3%. The AC50 under setting [1] was 29.1 µM [rising, single point].

The term AC50 denotes the midpoint of the concentration-response curve, whichever way the signal moves. A low value points to activity at low concentration.
